Measurements taken from patent publication EP0888374B1.
These are yes or no findings as the source states them, for the method shown. Some results given as binding are weak or reduced against the parent protein; the word gives no strength.

By UniProt entry, the sequences of proteins in these tests, tags left out. Where a name states a change or a piece, a line headed by the entry shows the natural chain unless it says otherwise. Residues count along the entry.
UniProt P02745: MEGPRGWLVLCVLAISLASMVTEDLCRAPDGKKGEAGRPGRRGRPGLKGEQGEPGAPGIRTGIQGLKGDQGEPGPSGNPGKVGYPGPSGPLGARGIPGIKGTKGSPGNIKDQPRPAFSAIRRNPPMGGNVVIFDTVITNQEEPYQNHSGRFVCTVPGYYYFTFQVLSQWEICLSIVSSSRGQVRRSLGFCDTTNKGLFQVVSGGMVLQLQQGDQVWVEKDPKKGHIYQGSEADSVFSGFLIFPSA
UniProt P02743, residues 20-223: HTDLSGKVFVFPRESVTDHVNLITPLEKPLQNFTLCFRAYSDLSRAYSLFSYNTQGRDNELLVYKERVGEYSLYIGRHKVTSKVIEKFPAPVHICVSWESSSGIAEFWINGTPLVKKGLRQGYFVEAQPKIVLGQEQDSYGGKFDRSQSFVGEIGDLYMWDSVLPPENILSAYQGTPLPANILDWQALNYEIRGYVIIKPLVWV

Biological target: Complement System Protein C1q (UniProt P02745)
Assay: nitrocellulose filter assay; competition with 32P-RNA ligand #50 for C1q

Substance: serum amyloid protein (SAP) (from UniProt P02743 20-223) (other; other documents disagree on this pair)
- binding: binds
